Experimental data taken from patent US20260035468A1 (INSTITUT NATIONAL DE LA SANT ET DE LA RECHERCHE M DICALE, published 2026).
Results are given in words; binding and its absence hold for the method and conditions named. Some results given as binding are weak or reduced against the parent protein; the word gives no strength.

By UniProt entry, the sequences of proteins in these tests, tags left out. Where a name states a change or a piece, a line headed by the entry shows the natural chain unless it says otherwise.
UniProt P43406: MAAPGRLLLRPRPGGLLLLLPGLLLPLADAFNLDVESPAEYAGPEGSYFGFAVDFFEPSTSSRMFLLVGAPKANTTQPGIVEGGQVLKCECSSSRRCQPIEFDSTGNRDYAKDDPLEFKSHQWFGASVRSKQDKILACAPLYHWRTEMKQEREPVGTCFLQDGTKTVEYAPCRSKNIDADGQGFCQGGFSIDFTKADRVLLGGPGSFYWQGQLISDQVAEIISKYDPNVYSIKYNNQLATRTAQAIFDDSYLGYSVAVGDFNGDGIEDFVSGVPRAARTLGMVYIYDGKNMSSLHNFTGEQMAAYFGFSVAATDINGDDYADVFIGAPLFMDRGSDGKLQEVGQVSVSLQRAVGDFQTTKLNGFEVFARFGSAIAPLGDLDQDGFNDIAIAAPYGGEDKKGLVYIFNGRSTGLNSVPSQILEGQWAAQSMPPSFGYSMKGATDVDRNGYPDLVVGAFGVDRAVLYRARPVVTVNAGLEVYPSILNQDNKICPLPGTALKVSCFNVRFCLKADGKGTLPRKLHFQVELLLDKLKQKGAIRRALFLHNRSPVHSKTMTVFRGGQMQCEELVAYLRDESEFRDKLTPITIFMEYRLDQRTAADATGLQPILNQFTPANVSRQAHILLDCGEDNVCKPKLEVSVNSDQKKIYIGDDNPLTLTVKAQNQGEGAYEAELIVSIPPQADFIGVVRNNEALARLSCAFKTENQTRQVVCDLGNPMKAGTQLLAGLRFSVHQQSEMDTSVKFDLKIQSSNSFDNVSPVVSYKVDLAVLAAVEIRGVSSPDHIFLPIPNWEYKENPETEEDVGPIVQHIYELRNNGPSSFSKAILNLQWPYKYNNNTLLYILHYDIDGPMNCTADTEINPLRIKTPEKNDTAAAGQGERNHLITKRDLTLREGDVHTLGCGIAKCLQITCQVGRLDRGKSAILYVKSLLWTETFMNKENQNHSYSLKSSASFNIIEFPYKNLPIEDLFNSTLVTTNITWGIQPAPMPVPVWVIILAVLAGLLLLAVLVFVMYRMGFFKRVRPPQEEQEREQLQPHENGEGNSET
UniProt P26012: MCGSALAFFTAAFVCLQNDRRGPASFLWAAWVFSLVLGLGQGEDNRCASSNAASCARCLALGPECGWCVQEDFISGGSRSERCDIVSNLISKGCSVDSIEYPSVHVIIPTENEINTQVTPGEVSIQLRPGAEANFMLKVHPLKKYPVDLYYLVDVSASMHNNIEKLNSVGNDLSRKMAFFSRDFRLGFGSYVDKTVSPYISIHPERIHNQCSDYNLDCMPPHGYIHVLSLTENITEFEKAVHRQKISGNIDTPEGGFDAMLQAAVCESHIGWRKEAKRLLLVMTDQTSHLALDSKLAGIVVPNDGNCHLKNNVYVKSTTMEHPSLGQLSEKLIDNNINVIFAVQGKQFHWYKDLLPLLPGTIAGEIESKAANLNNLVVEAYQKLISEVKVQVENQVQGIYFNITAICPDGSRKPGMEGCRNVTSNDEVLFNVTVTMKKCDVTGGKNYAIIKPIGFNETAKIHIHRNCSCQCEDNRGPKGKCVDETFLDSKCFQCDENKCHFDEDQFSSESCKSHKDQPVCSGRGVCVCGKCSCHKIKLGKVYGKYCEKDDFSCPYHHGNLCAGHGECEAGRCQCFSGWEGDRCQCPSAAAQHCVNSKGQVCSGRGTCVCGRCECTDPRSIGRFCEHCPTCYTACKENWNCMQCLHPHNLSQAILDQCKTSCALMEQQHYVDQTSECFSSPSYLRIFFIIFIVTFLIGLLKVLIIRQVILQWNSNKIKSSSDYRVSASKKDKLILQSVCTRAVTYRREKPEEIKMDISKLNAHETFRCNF
UniProt P06756: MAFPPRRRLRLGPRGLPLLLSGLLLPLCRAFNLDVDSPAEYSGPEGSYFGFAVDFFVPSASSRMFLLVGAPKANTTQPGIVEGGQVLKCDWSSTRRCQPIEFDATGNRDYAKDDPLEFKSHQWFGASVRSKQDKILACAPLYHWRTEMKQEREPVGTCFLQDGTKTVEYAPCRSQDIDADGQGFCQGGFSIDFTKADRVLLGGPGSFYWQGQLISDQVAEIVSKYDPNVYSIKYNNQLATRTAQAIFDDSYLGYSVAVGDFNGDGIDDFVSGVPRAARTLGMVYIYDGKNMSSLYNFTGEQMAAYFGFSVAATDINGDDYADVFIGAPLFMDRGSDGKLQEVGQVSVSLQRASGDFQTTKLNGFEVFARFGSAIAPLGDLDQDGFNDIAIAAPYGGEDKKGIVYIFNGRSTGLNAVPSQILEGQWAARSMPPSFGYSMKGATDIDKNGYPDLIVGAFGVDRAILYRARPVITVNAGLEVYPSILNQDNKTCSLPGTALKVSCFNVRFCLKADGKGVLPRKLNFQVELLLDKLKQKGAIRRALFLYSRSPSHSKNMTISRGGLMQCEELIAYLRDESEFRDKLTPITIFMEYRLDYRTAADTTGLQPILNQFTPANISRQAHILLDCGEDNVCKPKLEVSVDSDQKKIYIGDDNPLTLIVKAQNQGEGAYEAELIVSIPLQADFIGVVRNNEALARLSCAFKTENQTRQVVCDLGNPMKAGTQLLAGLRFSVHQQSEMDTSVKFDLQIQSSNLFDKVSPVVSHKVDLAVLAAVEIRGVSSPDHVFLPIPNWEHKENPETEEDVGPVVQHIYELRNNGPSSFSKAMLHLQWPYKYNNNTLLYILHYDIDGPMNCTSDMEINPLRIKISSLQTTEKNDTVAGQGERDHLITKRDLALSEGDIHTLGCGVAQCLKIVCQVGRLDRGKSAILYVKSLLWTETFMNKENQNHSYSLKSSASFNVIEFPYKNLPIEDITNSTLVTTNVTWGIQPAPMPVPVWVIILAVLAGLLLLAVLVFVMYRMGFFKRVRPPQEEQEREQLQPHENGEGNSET

Columns and labels:
[1] = target: T1, β8 chain of αvβ8 integrin (Itgβ8) expressed on mouse Tregs (mouse) (UniProt Q0VBD0+P43406); assay: flow cytometry on mouse lymph node Tregs (FIG. 2)
[2] = target: T1, β8 chain of αvβ8 integrin (Itgβ8) expressed on mouse Tregs (mouse); assay: flow cytometry, supernatants on mouse lymph node cells, anti-IgM secondary
[3] = target: β8 chain of αvβ8 integrin (Itgβ8) expressed on human tumor Treg cells (human) (UniProt P26012+P06756); assay: staining of cells of one fresh human colonic tumor (data not shown)
[4] = target: T1, β8 chain of αvβ8 integrin (Itgβ8) expressed on mouse Tregs (mouse); assay: conclusion of the example (flow cytometry on Tregs)
[5] = target: T2, recombinant mouse Itgβ8 (mouse) (UniProt Q0VBD0); assay: ELISA of hybridoma supernatants on recombinant mouse Itgβ8
T2 sequence (looked up): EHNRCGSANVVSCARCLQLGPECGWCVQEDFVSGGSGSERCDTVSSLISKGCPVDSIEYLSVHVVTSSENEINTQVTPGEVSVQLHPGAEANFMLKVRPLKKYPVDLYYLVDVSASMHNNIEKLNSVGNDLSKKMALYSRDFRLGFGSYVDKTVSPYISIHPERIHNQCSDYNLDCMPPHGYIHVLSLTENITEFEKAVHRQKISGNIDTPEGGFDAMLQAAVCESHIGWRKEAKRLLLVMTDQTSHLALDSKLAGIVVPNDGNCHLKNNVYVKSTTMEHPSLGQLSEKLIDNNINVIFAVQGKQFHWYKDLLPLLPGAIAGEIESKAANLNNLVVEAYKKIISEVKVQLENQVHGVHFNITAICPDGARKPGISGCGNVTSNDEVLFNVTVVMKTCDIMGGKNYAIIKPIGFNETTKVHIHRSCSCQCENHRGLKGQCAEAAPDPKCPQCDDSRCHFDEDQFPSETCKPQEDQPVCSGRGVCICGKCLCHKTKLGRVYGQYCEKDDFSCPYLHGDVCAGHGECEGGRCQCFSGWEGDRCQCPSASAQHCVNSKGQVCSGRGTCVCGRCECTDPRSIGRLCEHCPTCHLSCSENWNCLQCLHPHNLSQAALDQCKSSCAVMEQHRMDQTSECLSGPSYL

Measured: binding

B1: Mab 1G10H5 (antibody, V domains shown)
VH: QVQLQQSGAELARPGASVKMSCKASGYTFTSYTMHWVKQRPGQGLEWIGYINPSSGYTKYNQKFKDKATLTADKSSSTAYMQLSSLTSEDSAVYYCARAEGLRAWFAYWGQGTLVTVSA
VL: DIVMTQSQKFMSTSVGDRVSVTCKASQNVGTNVAWYQQKPGQSPKALIYSASYRYSGVPDHFTGSGSGTDFTLTIINVQSEDLAEYFCQQYNSYPYTFGGGTKLEIK
binds: [1] | [2] | [3] | [4] | [5]

B2: Mab 1G10G4 (antibody, V domains shown)
VH: B1 VH
VL: B1 VL
notes: Mouse hybridoma antibody tested as clone supernatant; also called 1G10G4 mAb; clone 3
binds: [1] | [2] | [4] | [5]

B3: Mab 9B2 (antibody, V domains shown)
VH: QVQLQQSGAELAKPGASVKLSCKASGYTFTRYWMHWVKQRPGQGLEWIGHINPSSGYTKYNQKFKDKATLTADKSSSTAYMQLSSLTYEDSAVYYCAREVYYYGSSYGDFDYWGQGTTLTVSS
VL: QIVLTQSPAIMSASPGEKVTISCSASSSVSYMYWYQQKPGSSPKPWIYRTSNLASGVPARFSGSGSGTSYSLTISSMEAEDAATYYCQQYHSYPLTFGAGTKLELK
notes: Mouse hybridoma antibody tested as clone supernatant; also called 9B2 mAb; clone 1
binds: [1] | [2] | [4] | [5]
